Measurements taken from publication PMC11618752.
These are yes or no findings as the source states them, for the method shown. In cells and extracts the contact can be indirect. Some entries that bind do so weakly or less than the wild type.

Amino acid sequences for entries named in this document (tags omitted).
UniProt Q9BRJ7: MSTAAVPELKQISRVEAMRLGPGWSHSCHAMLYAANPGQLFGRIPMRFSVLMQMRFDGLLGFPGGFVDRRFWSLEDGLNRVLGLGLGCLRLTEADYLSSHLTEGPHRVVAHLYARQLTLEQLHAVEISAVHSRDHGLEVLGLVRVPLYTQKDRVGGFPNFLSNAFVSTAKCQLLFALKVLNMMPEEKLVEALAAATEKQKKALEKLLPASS
UniProt Q12888: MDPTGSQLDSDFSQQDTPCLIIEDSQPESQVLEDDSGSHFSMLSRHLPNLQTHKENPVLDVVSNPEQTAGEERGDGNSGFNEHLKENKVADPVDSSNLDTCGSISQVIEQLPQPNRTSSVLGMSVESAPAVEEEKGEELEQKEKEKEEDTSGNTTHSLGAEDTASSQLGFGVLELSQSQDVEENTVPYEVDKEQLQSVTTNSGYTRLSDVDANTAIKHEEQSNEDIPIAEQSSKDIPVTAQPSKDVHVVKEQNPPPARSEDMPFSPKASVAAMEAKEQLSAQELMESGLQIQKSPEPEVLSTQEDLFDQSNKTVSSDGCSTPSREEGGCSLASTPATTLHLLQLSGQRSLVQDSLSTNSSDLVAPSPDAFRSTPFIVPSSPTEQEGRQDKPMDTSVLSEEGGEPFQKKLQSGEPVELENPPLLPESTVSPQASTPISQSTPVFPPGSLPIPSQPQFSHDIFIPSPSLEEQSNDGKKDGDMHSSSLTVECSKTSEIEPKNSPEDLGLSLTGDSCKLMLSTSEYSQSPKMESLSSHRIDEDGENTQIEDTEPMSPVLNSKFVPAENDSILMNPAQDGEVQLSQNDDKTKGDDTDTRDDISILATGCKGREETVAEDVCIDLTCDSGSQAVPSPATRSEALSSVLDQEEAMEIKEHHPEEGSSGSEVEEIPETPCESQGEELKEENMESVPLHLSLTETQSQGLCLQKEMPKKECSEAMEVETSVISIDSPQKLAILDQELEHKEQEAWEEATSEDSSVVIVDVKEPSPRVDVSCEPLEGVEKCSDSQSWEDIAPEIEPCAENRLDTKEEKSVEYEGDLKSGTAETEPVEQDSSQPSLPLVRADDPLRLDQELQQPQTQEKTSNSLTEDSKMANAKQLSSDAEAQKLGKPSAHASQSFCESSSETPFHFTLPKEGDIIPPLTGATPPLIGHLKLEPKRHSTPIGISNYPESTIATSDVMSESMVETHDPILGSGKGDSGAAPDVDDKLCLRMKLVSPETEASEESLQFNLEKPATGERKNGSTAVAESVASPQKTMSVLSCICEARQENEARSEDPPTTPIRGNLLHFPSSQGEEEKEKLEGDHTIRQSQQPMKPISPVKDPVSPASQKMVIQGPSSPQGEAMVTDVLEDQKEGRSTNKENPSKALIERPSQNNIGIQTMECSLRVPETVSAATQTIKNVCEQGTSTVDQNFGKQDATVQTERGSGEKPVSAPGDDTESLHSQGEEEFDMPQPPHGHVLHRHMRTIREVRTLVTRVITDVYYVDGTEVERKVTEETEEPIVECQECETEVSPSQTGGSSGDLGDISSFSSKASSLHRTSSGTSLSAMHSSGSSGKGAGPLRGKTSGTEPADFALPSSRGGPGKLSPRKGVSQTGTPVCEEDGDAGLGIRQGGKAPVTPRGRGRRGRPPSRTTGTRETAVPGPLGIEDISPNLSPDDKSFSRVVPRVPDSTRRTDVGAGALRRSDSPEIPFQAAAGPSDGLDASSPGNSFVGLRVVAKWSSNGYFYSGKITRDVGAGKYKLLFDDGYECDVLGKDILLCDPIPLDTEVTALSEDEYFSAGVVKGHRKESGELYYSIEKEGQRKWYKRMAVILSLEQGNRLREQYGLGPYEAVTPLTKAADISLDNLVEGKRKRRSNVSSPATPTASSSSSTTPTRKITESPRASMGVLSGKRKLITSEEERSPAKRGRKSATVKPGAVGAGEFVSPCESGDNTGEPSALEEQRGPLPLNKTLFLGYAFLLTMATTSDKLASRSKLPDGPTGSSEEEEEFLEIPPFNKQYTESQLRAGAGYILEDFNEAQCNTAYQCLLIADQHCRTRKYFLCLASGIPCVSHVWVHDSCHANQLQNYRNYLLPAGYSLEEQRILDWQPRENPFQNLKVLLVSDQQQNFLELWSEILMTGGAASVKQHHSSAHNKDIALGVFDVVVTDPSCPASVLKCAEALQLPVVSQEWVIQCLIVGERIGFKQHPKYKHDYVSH
UniProt O14980: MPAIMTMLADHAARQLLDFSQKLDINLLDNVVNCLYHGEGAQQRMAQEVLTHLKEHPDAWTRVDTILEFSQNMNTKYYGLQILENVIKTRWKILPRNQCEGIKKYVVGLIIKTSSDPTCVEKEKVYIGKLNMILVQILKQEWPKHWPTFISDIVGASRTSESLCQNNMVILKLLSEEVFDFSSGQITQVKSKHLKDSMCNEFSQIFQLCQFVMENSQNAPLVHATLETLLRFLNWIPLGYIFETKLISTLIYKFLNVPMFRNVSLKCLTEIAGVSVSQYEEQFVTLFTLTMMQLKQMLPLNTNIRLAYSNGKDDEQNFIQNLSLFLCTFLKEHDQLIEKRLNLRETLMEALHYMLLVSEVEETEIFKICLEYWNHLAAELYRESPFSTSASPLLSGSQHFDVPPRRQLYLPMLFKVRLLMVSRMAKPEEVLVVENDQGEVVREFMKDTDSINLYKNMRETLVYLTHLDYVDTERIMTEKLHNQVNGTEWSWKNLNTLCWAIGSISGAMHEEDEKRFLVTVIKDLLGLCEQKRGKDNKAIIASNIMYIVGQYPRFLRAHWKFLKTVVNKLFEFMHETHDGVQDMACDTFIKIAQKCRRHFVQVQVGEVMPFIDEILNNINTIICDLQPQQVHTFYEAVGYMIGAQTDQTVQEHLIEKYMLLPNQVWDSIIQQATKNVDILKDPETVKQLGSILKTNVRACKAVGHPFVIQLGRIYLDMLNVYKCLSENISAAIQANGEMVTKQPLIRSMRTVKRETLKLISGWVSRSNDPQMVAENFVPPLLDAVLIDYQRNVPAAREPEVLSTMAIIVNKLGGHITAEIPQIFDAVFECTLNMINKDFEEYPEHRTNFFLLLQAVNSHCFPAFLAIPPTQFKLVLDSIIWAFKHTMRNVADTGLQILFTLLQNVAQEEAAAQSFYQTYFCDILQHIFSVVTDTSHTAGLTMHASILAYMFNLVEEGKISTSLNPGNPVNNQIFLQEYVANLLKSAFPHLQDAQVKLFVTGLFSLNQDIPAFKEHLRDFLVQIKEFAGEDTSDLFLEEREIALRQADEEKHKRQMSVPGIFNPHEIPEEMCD

Key:
[1] = biological target: Flag-tagged wild-type TIRR (UniProt Q9BRJ7); test: co-IP; TIRR (WT or lysine-187 mutant) and 53BP1 before and after DNA damage; Supplementary Fig. 4f, legend not shown
[2] = biological target: Tudor interacting repair regulator (TIRR), endogenous (human (endogenous in PC-3 and U2OS)) (UniProt Q9BRJ7); test: condition: only cells pretreated with the E1 inhibitor MLN4924; co-IP; endogenous TIRR and XPO1 in whole-cell lysates of PC-3 and U2OS cells pretreated with MLN4924 and exposed to IR (8 Gy)
[3] = biological target: Tudor interacting repair regulator (TIRR), endogenous (human (endogenous in PC-3 and U2OS)) (UniProt Q9BRJ7); test: co-IP; endogenous proteins in whole-cell lysates of PC-3 (and U2OS) cells; IP buffer 50 mM Tris-HCl pH 7.4, 150 mM NaCl, 1% NP-40, 1% sodium deoxycholate; antibody-conjugated protein A/G beads, 4 °C overnight; cells with or without IR (8 Gy), DMSO or MG132 pretreatment, control or DTX3L knockout
[4] = biological target: Flag-tagged wild-type TIRR (UniProt Q9BRJ7); test: co-IP; whole-cell lysates of 293T cells transfected with HA-XPO1 and Flag-TIRR-WT or mutants; IR (4 or 8 Gy); HA-/Flag-conjugated agarose, IP buffer, 4 °C overnight
[5] = biological target: Flag-tagged wild-type TIRR (UniProt Q9BRJ7); test: co-IP; WT and mutant (I521A/L525A/F561A/F572A) XPO1 with TIRR; Supplementary Fig. 2b, legend not shown

Substance: 53BP1 (from UniProt Q12888 1-1972)
- binding [1]: binds

Substance: Exportin-1 (XPO1), endogenous (from UniProt O14980 1-1071)
- binding [2]: no binding
- binding [3]: binds

Substance: HA-tagged XPO1 (from UniProt O14980 1-1071)
- binding [4]: binds
- binding [5]: binds
